# Measurements from the supplement of paper PMC8728848.
# The list shows a part of the results.
# B1: AT1G77380(17) (Arabidopsis thaliana), Q39134 (protein)
# chain: MVQNHQTVLAVDMPQTGGSKYLDDDGKNKRTGSVWTASAHIITAVIGSGVLSLAWATAQLGWLAGPVVMLLFSAVTYFTSSLLAACYRSGDPISGKRNYTYMDAVRSNLGGVKVTLCGIVQYLNIFGVAIGYTIASAISMMAIKRSNCFHKSGGKDPCHMNSNPYMIAFGLVQILFSQIPDFDQLWWLSILAAVMSFTYSSAGLALGIAQVVVNGKVKGSLTGISIGAVTETQKIWRTFQALGDIAFAYSYSIILIEIQDTVKSPPSEEKTMKKATLVSVSVTTMFYMLCGCMGYAAFGDLSPGNLLTGFGFYNPYWLLDIANAAIVIHLIGAYQVYCQPLFAFIEKQASIQFPDSEFIAKDIKIPIPGFKPLRLNVFRLIWRTVFVIITTVISMLLPFFNDVVGLLGALGFWPLTVYFPVEMYIAQKKIPRWSTRWVCLQVFSLGCLVVSIAAAAGSIAGVLLDLKSYKPFRSEY
# Legend:
# Test in all cases: glycan array binding signal (z-score within array); higher = stronger binding
# Settings in all cases: glycan notation: IUPAC condensed, linker removed
# Kdn(a2-3)Gal(b1-3)GlcNAc = biological target: Kdn(a2-3)Gal(b1-3)GlcNAc
# Summary of the method: (§1)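 The binding signal is a Z-score computed within each array. Data were drawn from 3228 arrays in the Consortium for Functional Glycomics database, restricted to those with a known protein sequence. Scores were averaged over arrays of the same protein sequence at different concentrations or buffers, and over linkers, and negative values can be taken as non-binding.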
# Kdn(a2-3)Gal(b1-4)Glc = biological target: Kdn(a2-3)Gal(b1-4)Glc
# Summary of the method: as §1
# Kdn(a2-3)Gal(b1-4)GlcNAc = biological target: Kdn(a2-3)Gal(b1-4)GlcNAc
# Summary of the method: as §1
# [1] = biological target: Kdn(a2-3)Gal(b1-4)[Fuc(a1-3)]GlcNAc
# Summary of the method: as §1
# Kdn(a2-6)Gal(b1-4)GlcNAc = biological target: Kdn(a2-6)Gal(b1-4)GlcNAc
# Summary of the method: as §1
# [2] = biological target: Man(a1-2)Man(a1-2)Man(a1-3)Man
# Summary of the method: as §1
# [3] = biological target: Man(a1-2)Man(a1-2)Man(a1-6)[Man(a1-3)]Man
# Summary of the method: as §1
# Man(a1-2)Man(a1-3)Man = biological target: Man(a1-2)Man(a1-3)Man
# Summary of the method: as §1
# [4] = biological target: Man(a1-2)Man(a1-3)[Man(a1-2)Man(a1-6)]Man
# Summary of the method: as §1
# [5] = biological target: Man(a1-2)Man(a1-3)[Man(a1-2)Man(a1-6)]Man(a1-6)[Man(a1-2)Man(a1-2)Man(a1-3)]Man
# Summary of the method: as §1
# [6] = biological target: Man(a1-2)Man(a1-3)[Man(a1-2)Man(a1-6)]Man(a1-6)[Man(a1-2)Man(a1-2)Man(a1-3)]Man(b1-4)GlcNAc(b1-4)GlcNAc
# Summary of the method: as §1
# [7] = biological target: Man(a1-2)Man(a1-3)[Man(a1-6)]Man(a1-6)[Man(a1-2)Man(a1-3)]Man(b1-4)GlcNAc(b1-4)GlcNAc
# Summary of the method: as §1
# [8] = biological target: Man(a1-2)Man(a1-6)[Man(a1-3)]Man(a1-6)[Man(a1-2)Man(a1-2)Man(a1-3)]Man
# Summary of the method: as §1
# [9] = biological target: Man(a1-2)Man(a1-6)[Man(a1-3)]Man(a1-6)[Man(a1-2)Man(a1-2)Man(a1-3)]Man(b1-4)GlcNAc(b1-4)GlcNAc
# Summary of the method: as §1
# Man(a1-3)[Man(a1-6)]Man = biological target: Man(a1-3)[Man(a1-6)]Man
# Summary of the method: as §1
# [10] = biological target: Man(a1-3)[Man(a1-6)]Man(a1-6)[Man(a1-2)Man(a1-3)]Man(b1-4)GlcNAc(b1-4)GlcNAc
# Summary of the method: as §1
# [11] = biological target: Man(a1-3)[Man(a1-6)]Man(a1-6)[Man(a1-3)]Man
# Summary of the method: as §1
# [12] = biological target: Man(a1-3)[Man(a1-6)]Man(a1-6)[Man(a1-3)]Man(b1-4)GlcNAc(b1-4)GlcNAc
# Summary of the method: as §1
# [13] = biological target: Man(a1-3)[Man(a1-6)]Man(b1-4)GlcNAc(b1-4)GlcNAc
# Summary of the method: as §1
# [14] = biological target: Man(a1-3)[Man(a1-6)]Man(b1-4)GlcNAc(b1-4)[Fuc(a1-6)]GlcNAc
# Summary of the method: as §1
# Man(a1-6)Man = biological target: Man(a1-6)Man
# Summary of the method: as §1
# Man(b1-4)GlcNAc = biological target: Man(b1-4)GlcNAc
# Summary of the method: as §1
# MurNAc(b1-4)GlcNAc = biological target: MurNAc(b1-4)GlcNAc
# Summary of the method: as §1
# Neu5Ac(a2-3)Gal = biological target: Neu5Ac(a2-3)Gal
# Summary of the method: as §1
# [15] = biological target: Neu5Ac(a2-3)Gal(b1-3)GalNAc
# Summary of the method: as §1
# [16] = biological target: Neu5Ac(a2-3)Gal(b1-3)GalNAc(b1-3)Gal(a1-4)Gal(b1-4)Glc
# Summary of the method: as §1
# [17] = biological target: Neu5Ac(a2-3)Gal(b1-3)GalNAc(b1-4)[Neu5Ac(a2-3)]Gal(b1-4)Glc
# Summary of the method: as §1
# [18] = biological target: Neu5Ac(a2-3)Gal(b1-3)GalNAc(b1-4)[Neu5Ac(a2-8)Neu5Ac(a2-3)]Gal(b1-4)Glc
# Summary of the method: as §1
# [19] = biological target: Neu5Ac(a2-3)Gal(b1-3)GalNAc6S
# Summary of the method: as §1
# [20] = biological target: Neu5Ac(a2-3)Gal(b1-3)GlcNAc
# Summary of the method: as §1
# [21] = biological target: Neu5Ac(a2-3)Gal(b1-3)GlcNAc(b1-2)Man
# Summary of the method: as §1
# [22] = biological target: Neu5Ac(a2-3)Gal(b1-3)GlcNAc(b1-2)Man(a1-3)[GlcNAc(b1-4)][Neu5Ac(a2-3)Gal(b1-3)GlcNAc(b1-2)Man(a1-6)]Man(b1-4)GlcNAc(b1-4)GlcNAc
# Summary of the method: as §1
# [23] = biological target: Neu5Ac(a2-3)Gal(b1-3)GlcNAc(b1-2)Man(a1-3)[Neu5Ac(a2-3)Gal(b1-3)GlcNAc(b1-2)Man(a1-6)]Man(b1-4)GlcNAc(b1-4)GlcNAc
# Summary of the method: as §1
# [24] = biological target: Neu5Ac(a2-3)Gal(b1-3)GlcNAc(b1-3)Gal(b1-3)GlcNAc
# Summary of the method: as §1
# [25] = biological target: Neu5Ac(a2-3)Gal(b1-3)GlcNAc(b1-3)Gal(b1-4)GlcNAc
# Summary of the method: as §1
# [26] = biological target: Neu5Ac(a2-3)Gal(b1-3)GlcNAc(b1-3)GalNAc
# Summary of the method: as §1
# [27] = biological target: Neu5Ac(a2-3)Gal(b1-3)GlcNAc(b1-4)Gal(b1-4)Glc
# Summary of the method: as §1
# [28] = biological target: Neu5Ac(a2-3)Gal(b1-3)GlcNAc(b1-6)GalNAc
# Summary of the method: as §1
binder,measurement,setting,value
B1,glycan array binding signal (z-score),Kdn(a2-3)Gal(b1-3)GlcNAc,-0.6
same,glycan array binding signal (z-score),Kdn(a2-3)Gal(b1-4)Glc,4.07
same,glycan array binding signal (z-score),Kdn(a2-3)Gal(b1-4)GlcNAc,-0.514
same,glycan array binding signal (z-score),[1],1.37
same,glycan array binding signal (z-score),Kdn(a2-6)Gal(b1-4)GlcNAc,-0.255
same,glycan array binding signal (z-score),[2],-0.684
same,glycan array binding signal (z-score),[3],0.036
same,glycan array binding signal (z-score),Man(a1-2)Man(a1-3)Man,-0.203
same,glycan array binding signal (z-score),[4],-0.601
same,glycan array binding signal (z-score),[5],-0.498
same,glycan array binding signal (z-score),[6],3.3
same,glycan array binding signal (z-score),[7],-0.177
same,glycan array binding signal (z-score),[8],-0.524
same,glycan array binding signal (z-score),[9],1.19
same,glycan array binding signal (z-score),Man(a1-3)[Man(a1-6)]Man,0.006
same,glycan array binding signal (z-score),[10],1.69
same,glycan array binding signal (z-score),[11],-0.782
same,glycan array binding signal (z-score),[12],1.9
same,glycan array binding signal (z-score),[13],-0.727
same,glycan array binding signal (z-score),[14],-0.239
same,glycan array binding signal (z-score),Man(a1-6)Man,-0.696
same,glycan array binding signal (z-score),Man(b1-4)GlcNAc,-0.8
same,glycan array binding signal (z-score),MurNAc(b1-4)GlcNAc,-0.617
same,glycan array binding signal (z-score),Neu5Ac(a2-3)Gal,-0.323
same,glycan array binding signal (z-score),[15],0.18
same,glycan array binding signal (z-score),[16],-0.335
same,glycan array binding signal (z-score),[17],-0.105
same,glycan array binding signal (z-score),[18],0.187
same,glycan array binding signal (z-score),[19],-0.721
same,glycan array binding signal (z-score),[20],-0.416
same,glycan array binding signal (z-score),[21],-0.099
same,glycan array binding signal (z-score),[22],-0.84
same,glycan array binding signal (z-score),[23],-0.809
same,glycan array binding signal (z-score),[24],0.368
same,glycan array binding signal (z-score),[25],-0.586
same,glycan array binding signal (z-score),[26],-0.258
same,glycan array binding signal (z-score),[27],-0.757
same,glycan array binding signal (z-score),[28],-0.863
